Data as given in patent US8188144B2, “In vitro preservation of living animal cells and compounds suitable for use in the preservation of living animal cells” (Antoxis Limited, priority 2007, dated 2012).

Tested on: mouse embryonic stem cells
Experiment: MTT cell viability assay of tert-butyl hydroperoxide oxidative stress-induced cytotoxicity in mouse embryonic stem cells
Assay type: cell-based
Experimental: Oxidative stress and related free radical damage can be induced in cells, including stem cells, by exposing the cells to tert-butyl hydroperoxide in the incubation medium. Decomposition of the peroxide over a period of time leads to a steady generation of reactive oxygen species. This in turn triggers a cascade of free radical-mediated events that eventually leads to irreversible damage and ultimately cell death as the natural antioxidant defences are overwhelmed.
The extent of cytotoxicity induced by peroxide exposure can be quantified using a number of well-documented assays, including the MTT protocol. This is a colorometric assay that measures the reduction of MTT to formazan, a process that can only occur when cells are viable. Thus, by comparing the amount of formazan produced in control cells, against cells treated with a cytotoxic agent, such as tert-butyl hydroperoxide, the reduction in cell viability induced by the agent can be measured.
The assay can be further extended to determine the effectiveness of compounds to provide protection against cytotoxic agents. In the case of the novel antioxidants, the subject of this patent, this can be achieved by pre-incubation of the cells with the antioxidant agent prior to induction of oxidative stress by tert-butyl hydroperoxide. Thus a comparison of the amount of formazan produced by control cells against cells with the cytotoxic peroxide present, plus or minus pre-incubation with the novel antioxidant, can determine the extent by which the compound can retain cell viability.
A 96-well plate was seeded with approximately 20,000 mouse embryonic stem cells per well and left to grow at 37° C. (5% CO2) overnight. Antioxidants, denoted as Exp.1, Exp.2 and Exp.3, were dissolved in DMSO and added to the wells in triplicate 30 min before induction of oxidative stress with tert-butyl hydroperoxide. The resultant concentrations of the tested antioxidants in the wells were 0.1, 0.5 and 1 μM. Controls were also initiated using cell medium (DMEM^+)/DMSO. After the 30 min pre-incubation period, tert-butyl peroxide was added to the wells to provide a final concentration of 400 μM. The plated cells were returned to the incubator (37° C.) for 90 min. After this period, 20 μL of the MTT reagent solution was added to all of the wells. The plate was then further incubated for a further 3 hours. The supernatant was removed from the wells and 200 μl DMSO added to all wells to solubilise reduced MTT (formazan). The plate was protected from light and shaken for 10 min. The supernatant was removed from the wells and aliquoted into a new 96-well plate for the colorometric measurements. Absorbance was determined at 540 nm.
The average corrected absorbance. (0.737) for the DMEM^+ control (which contained no antioxidant compounds or tert-butyl hydroperoxide) represented the 100% viability benchmark. Comparison of the corrected absorbances in the various well treatment regimes relative to that of the DMEM^+ control enabled the resultant effects on cell viability to be calculated. tBHP=tert-butyl hydroperoxide.

[1] = 0.1 μM compound, 30 min pre-incubation, then 400 μM tBHP 90 min, 540 nm
[2] = 0.5 μM compound, 30 min pre-incubation, then 400 μM tBHP 90 min, 540 nm
[3] = 1 μM compound, 30 min pre-incubation, then 400 μM tBHP 90 min, 540 nm
[4] = 1 μM compound, no tBHP, MTT, absorbance at 540 nm
[5] = 400 μM tBHP alone, no antioxidant, 90 min, 540 nm

Compound | Ave. Absorbance [1] | Ave. Corrected Absorbance [1] | Ave. Absorbance [2] | Ave. Corrected Absorbance [2] | Ave. Absorbance [3] | Ave. Corrected Absorbance [3] | Ave. Absorbance [4] | Ave. Corrected Absorbance [4] | Ave. Absorbance [5] | Ave. Corrected Absorbance [5]
CCCCCCCCCCc1ccc2c(=O)c(O)c(-c3cc(O)c(O)c(O)c3)oc2c1 [Exp.1] | 0.494 | 0.420 | 0.712 | 0.638 | 0.700 | 0.625 | 0.866 | 0.791 | – | –
CCCCCCCCCCCCc1cc(=O)c(O)c(-c2cc(O)c(O)c(O)c2)o1 [Exp.2] | 0.520 | 0.446 | 0.773 | 0.699 | 0.788 | 0.714 | 0.841 | 0.767 | – | –
CCCCCCCCc1cc(=O)c(O)c(-c2cc(O)c(O)c(O)c2)o1 [Exp.3] | 0.328 | 0.254 | 0.483 | 0.409 | 0.593 | 0.519 | – | – | – | –
CC(C)(C)OO [tBHP, tert-butyl hydroperoxide, reference compound] | – | – | – | – | – | – | – | – | 0.347 | 0.273
